Consider five sequences from PMC11978871, “PACT prevents aberrant activation of PKR by endogenous dsRNA without sequestration” (Nature Communications, 2024).

Chains of the proteins cited; added tags and fusions are not shown.
UniProt P19525, whole entry K296R: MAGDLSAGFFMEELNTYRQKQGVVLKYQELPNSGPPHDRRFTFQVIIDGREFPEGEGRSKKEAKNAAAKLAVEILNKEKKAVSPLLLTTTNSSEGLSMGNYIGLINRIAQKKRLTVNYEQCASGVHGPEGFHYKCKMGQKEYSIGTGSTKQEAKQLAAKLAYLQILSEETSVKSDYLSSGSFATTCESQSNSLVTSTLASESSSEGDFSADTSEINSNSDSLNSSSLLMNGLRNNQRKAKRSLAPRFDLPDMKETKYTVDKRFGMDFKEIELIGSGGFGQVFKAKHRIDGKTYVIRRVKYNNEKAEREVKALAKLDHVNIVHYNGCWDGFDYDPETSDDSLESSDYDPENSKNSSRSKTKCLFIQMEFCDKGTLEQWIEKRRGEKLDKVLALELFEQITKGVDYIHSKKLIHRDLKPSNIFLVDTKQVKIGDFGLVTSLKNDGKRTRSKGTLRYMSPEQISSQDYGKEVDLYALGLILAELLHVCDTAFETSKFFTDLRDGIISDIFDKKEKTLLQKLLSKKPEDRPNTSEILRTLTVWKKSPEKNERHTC

Substitutions are numbered along the chain they refer to. For at least one entry, the source does not settle the construct or the ends of the probe. For some of these results: No signal at the amounts used counts as a negative. For some of these results: At least one verdict rests on a figure or table, not on a statement of the authors. For some of these results: Tags and fusion partners may be left off the protein sequences shown. For some of these results: A weaker result is weaker than the reference pair of the same experiment.

One data set deals with PKR (gel shift) (UniProt P19525). The data set is described as follows: EMSA. Particulars: 25 ng/ul RNA, EMSA: 20 mM HEPES pH 7.5, 150 mM NaCl, 2 mM DTT, RT 15 min, 0.2 ng/ul 32P-112 bp dsRNA, 0-4000 nM protein, Bis-Tris native …, recombinant protein, residues 1-551, protein details: pET29b. A general note: A gel shift assay detects complexes by their altered migration in electrophoresis.

Another data set addresses PKR K296R (UniProt P19525). Kind of data set: smFRET. Particulars: recombinant protein, residues 1-551, protein details: pET29b, Cy5-labeled in smFRET, label: Cy3, biotin.
Data set [1] has as its target T1, PACT 4KE K84E,K85E,K177E,K178E (UniProt O75569).
T1 sequence (looked up): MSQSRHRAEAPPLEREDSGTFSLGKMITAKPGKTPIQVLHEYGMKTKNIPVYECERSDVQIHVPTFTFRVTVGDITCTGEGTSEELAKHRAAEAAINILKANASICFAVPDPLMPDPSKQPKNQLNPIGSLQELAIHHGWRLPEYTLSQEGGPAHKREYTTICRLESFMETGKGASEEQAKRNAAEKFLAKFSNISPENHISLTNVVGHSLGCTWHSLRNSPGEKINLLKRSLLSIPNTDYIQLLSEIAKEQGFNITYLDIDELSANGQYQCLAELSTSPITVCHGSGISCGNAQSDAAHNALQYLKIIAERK
Kind of data set: EMSA. As to conditions: 0-4000 nM; EMSA: 20 mM HEPES pH 7.5, 150 mM NaCl, 2 mM DTT, RT 15 min, 0.2 ng/ul 32P-112 bp dsRNA, 0-4000 nM protein, Bis-Tris native PAGE; recombinant protein; residues 1-313; protein details: pET47b; label: 32P.

The next data set deals with T2, PACT D3 (UniProt O75569).
T2 sequence (looked up): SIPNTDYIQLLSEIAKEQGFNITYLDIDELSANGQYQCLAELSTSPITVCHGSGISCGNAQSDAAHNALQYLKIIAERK
Kind of data set: EMSA. As to conditions: EMSA: 20 mM HEPES pH 7.5, 150 mM NaCl, 2 mM DTT, RT 15 min, 0.2 ng/ul 32P-112 bp dsRNA, 0-4000 nM protein, Bis-Tris native PAGE; recombinant protein; residues 235-313; protein details: pET47b; label: 32P.

Data set [2] deals with T3, PACT WT (UniProt O75569).
T3 sequence (looked up): T1 sequence (looked up) with E84K, E85K, E177K, E178K
The data set is described as follows: EMSA. Particulars: Hill fit assuming 8 sites; EMSA: 20 mM HEPES pH 7.5, 150 mM NaCl, 2 mM DTT, RT 15 min, 0.2 ng/ul 32P-112 bp dsRNA, 0-4000 nM protein, Bis-Tris native PAGE; recombinant protein; residues 1-313; protein details: His-tag removed (HRV-3C); label: 32P.

A further data set has as its target T4, PACT ΔD1 (UniProt O75569).
T4 sequence (looked up): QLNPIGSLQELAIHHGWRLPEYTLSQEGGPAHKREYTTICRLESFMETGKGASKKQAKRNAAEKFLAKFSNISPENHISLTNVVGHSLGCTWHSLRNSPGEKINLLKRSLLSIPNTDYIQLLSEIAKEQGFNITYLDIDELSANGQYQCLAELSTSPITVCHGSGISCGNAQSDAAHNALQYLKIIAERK
The data set is described as follows: EMSA. Particulars: EMSA: 20 mM HEPES pH 7.5, 150 mM NaCl, 2 mM DTT, RT 15 min, 0.2 ng/ul 32P-112 bp dsRNA, 0-4000 nM protein, Bis-Tris native PAGE; recombinant protein; residues 124-313; protein details: His-tag removed; label: 32P.

Another data set deals with T5, PACT ΔD2 del110-198 (UniProt O75569).
T5 sequence (looked up): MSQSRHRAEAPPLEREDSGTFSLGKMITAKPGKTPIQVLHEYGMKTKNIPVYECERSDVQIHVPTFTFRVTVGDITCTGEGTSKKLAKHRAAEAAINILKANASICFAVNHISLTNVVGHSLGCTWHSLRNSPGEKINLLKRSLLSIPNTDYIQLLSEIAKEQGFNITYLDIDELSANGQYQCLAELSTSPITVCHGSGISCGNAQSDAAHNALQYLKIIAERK
Kind of data set: EMSA. As to conditions: EMSA: 20 mM HEPES pH 7.5, 150 mM NaCl, 2 mM DTT, RT 15 min, 0.2 ng/ul 32P-112 bp dsRNA, 0-4000 nM protein, Bis-Tris native PAGE; recombinant protein; residues 1-313; protein details: His-tag removed; label: 32P.

Another data set concerns the target T6, PACT ΔD3 (UniProt O75569).
T6 sequence (looked up): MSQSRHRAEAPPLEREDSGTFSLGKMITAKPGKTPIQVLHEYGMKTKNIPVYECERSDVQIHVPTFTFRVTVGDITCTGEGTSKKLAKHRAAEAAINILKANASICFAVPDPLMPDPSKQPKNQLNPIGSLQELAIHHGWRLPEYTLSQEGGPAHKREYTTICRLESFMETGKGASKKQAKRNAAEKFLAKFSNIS
Kind of data set: EMSA. As to conditions: less significant impact on binding; EMSA: 20 mM HEPES pH 7.5, 150 mM NaCl, 2 mM DTT, RT 15 min, 0.2 ng/ul 32P-112 bp dsRNA, 0-4000 nM protein, Bis-Tris native PAGE; recombinant protein; residues 1-196; protein details: His-tag removed; label: 32P.

For the next data set, the target named is T7, RIG-I ΔCARDs (UniProt O95786).
T7 sequence (looked up, limits assumed): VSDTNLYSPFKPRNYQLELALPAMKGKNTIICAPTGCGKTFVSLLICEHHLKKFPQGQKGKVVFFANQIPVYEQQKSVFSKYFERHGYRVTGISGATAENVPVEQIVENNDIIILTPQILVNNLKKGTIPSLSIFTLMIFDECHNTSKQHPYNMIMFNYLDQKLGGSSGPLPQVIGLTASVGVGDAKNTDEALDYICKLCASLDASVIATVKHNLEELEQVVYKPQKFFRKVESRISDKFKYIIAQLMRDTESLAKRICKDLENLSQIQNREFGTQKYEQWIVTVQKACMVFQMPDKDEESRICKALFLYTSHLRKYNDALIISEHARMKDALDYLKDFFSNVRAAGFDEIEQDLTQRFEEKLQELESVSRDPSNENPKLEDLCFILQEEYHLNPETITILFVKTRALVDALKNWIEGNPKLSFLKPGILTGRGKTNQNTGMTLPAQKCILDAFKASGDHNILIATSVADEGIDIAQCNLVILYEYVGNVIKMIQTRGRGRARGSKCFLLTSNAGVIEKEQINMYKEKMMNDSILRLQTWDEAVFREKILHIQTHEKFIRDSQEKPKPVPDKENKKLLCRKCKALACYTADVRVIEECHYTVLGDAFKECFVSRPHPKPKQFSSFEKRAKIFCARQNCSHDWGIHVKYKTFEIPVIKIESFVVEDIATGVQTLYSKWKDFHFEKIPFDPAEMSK
Kind of data set: EMSA. Particulars: affinity comparable to PACT; EMSA: 20 mM HEPES pH 7.5, 150 mM NaCl, 2 mM DTT, RT 15 min, 0.2 ng/ul 32P-112 bp dsRNA, 0-4000 nM protein, Bis-Tris native PAGE; recombinant protein; label: ….

Data set [3] deals with T3, PACT WT. Kind of data set: single-molecule fluorescence. Particulars: PACT scans dsRNA, dsRNA length not given in excerpt; recombinant protein; residues 1-313; protein details: His-tag removed (HRV-3C); label: Cy3, biotin.

As for “GGGAGAAUGUCGAAUGGGUAUUCCACAGACGAGAAUUCUCCC / GGGAGAAUUCUCGUCUGUGGAAUACCCAUUCGACAUUCUCCC [42 bp dsRNA]”, the binding result with PKR (gel shift) (up to 3 PKR bound) is given as “binds”.
In the case of “GGGAGAAUGUCGAAUGGGUAUUCCACAGACGAGAAUUCUCCC / GGGAGAAUUCUCGUCUGUGGAAUACCCAUUCGACAUUCUCCC [Cy3-42 bp dsRNA (smFRET)]”, the binding result in the data set with PKR K296R (50 nM PKR, sliding time 0.130 ± 0.00657 s) is listed as “binds”.
One may read the Kd as the concentration at which binding is half-saturated. As to “GGGAGAAUGUCGAAUGGGUAUUCCACAGACGAGAAUUUCCGCUAUCUCAUCUCGUGCUUCAGGGCCAGGGUGAAAAUGUACAUCCAGGUGGAGCCUGUGCUGGACUUCUCCC / GGGAGAAGUCCAGCACAGGCUCCACCUGGAUGUACAUUUUCACCCUGGCCCUGAAGCACGAGAUGAGAUAGCGGAAAUUCUCGUCUGUGGAAUACCCAUUCGACAUUCUCCC [112 bp dsRNA]”, the binding result is “no binding” in [1]; “no binding” with PACT D3; “binds more weakly” with PACT ΔD1; “binds more weakly” in the data set with PACT ΔD2 del110-198; “binds” in the data set with PACT ΔD3; “binds” with RIG-I ΔCARDs. In the data set with PACT WT [2], the Kd stood at 358 nM.
Turning to “GGGAGAAUGUCGAAUGGGUAUUCCACAGACGAGAAUUUCCGCUAUCUCAUCUCGUGCUUCAGGGCCAGGGUGAAAAUGUACAUCCAGGUGGAGCCUGUGCUGGACUUCUCCC / GGGAGAAGUCCAGCACAGGCUCCACCUGGAUGUACAUUUUCACCCUGGCCCUGAAGCACGAGAUGAGAUAGCGGAAAUUCUCGUCUGUGGAAUACCCAUUCGACAUUCUCCC [Cy3-112 bp dsRNA (smFRET)]”, the binding result with PKR K296R (50 nM PKR, sliding time 0.230 ± 0.0101 s) is reported as “binds”; with PKR K296R (with 50 nM unlabeled PACT, binding not blocked, shorter residence and sliding time), “binds”; with PACT WT [3], “binds”.
Regarding “GGGAGAAUGUCGAAUGGGUAUUCCACAGACGAGAAUUUCCGCUAUCUCAUCUCGUGUCUCCC / GGGAGACACGAGAUGAGAUAGCGGAAAUUCUCGUCUGUGGAAUACCCAUUCGACAUUCUCCC [62 bp dsRNA]”, the binding result with PKR (gel shift) (up to 4 PKR bound) is reported as “binds”.
